Data taken from PMC10507871.
These are yes or no findings as the source states them, for the method shown. In cells and extracts the contact can be indirect. Some binding calls cover weakened binding; strength is not graded here.

Target: T1, ZBTB48 (telomeric zinc finger-associated protein, TZAP) (human (endogenous in patient-derived GSCs)) (UniProt P10074)
T1 sequence: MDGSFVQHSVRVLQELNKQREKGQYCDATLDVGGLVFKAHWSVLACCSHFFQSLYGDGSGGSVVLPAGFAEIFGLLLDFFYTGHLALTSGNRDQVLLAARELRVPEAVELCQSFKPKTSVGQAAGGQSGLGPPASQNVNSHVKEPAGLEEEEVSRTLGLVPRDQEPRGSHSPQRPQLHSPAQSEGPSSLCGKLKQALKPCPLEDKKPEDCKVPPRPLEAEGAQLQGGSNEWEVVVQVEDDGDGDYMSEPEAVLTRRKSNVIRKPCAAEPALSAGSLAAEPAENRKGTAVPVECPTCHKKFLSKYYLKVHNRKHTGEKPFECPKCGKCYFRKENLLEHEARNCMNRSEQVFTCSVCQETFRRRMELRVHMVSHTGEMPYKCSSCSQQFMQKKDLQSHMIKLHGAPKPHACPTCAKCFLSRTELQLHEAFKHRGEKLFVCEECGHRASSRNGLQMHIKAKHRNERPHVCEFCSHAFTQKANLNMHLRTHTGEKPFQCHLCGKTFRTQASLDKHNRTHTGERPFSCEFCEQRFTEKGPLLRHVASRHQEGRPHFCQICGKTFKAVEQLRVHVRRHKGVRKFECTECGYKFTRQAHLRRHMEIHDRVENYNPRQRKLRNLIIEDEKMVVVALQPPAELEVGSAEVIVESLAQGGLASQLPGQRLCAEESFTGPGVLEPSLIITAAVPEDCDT
Test: co-IP; GSC lysates (SYNS03, SYNS05; IP lysis buffer with protease and phosphatase inhibitors) incubated with antibody-coupled magnetic beads at 4 °C overnight, then western blot; also done after circRNF10 knockdown in SYNS03, where binding was enhanced

binding: binds
B1: makorin ring finger protein 3 (MKRN3) (enzyme, UniProt Q13064 1-507)
chain: MEEPAAPSEAHEAAGAQAGAEAAREGVSGPDLPVCEPSGESAAPDSALPHAARGWAPFPVAPVPAHLRRGGLRPAPASGGGAWPSPLPSRSSGIWTKQIICRYYIHGQCKEGENCRYSHDLSGRKMATEGGVSPPGASAGGGPSTAAHIEPPTQEVAEAPPAASSLSLPVIGSAAERGFFEAERDNADRGAAGGAGVESWADAIEFVPGQPYRGRWVASAPEAPLQSSETERKQMAVGSGLRFCYYASRGVCFRGESCMYLHGDICDMCGLQTLHPMDAAQREEHMRACIEAHEKDMELSFAVQRGMDKVCGICMEVVYEKANPNDRRFGILSNCNHSFCIRCIRRWRSARQFENRIVKSCPQCRVTSELVIPSEFWVEEEEEKQKLIQQYKEAMSNKACRYFAEGRGNCPFGDTCFYKHEYPEGWGDEPPGPGGGSFSAYWHQLVEPVRMGEGNMLYKSIKKELVVLRLASLLFKRFLSLRDELPFSEDQWDLLHYELEEYFNLIL
